Measured values reported in the supplement of paper PMC10849652.
This is one part of the list.

Chains of the proteins cited; added tags and fusions are not shown. Lines headed by an entry give the natural chain unless they say otherwise; changes in a name come on top.
UniProt O76071: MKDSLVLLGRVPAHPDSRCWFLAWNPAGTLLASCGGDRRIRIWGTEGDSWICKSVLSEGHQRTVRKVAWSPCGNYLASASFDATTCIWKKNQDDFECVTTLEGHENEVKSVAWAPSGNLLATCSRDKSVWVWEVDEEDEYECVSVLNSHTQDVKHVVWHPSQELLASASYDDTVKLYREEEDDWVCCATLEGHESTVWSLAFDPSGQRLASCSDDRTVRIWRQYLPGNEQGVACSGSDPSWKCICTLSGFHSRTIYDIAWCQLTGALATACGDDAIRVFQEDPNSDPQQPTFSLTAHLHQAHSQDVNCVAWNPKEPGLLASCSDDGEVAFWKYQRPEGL
UniProt Q9NPF2: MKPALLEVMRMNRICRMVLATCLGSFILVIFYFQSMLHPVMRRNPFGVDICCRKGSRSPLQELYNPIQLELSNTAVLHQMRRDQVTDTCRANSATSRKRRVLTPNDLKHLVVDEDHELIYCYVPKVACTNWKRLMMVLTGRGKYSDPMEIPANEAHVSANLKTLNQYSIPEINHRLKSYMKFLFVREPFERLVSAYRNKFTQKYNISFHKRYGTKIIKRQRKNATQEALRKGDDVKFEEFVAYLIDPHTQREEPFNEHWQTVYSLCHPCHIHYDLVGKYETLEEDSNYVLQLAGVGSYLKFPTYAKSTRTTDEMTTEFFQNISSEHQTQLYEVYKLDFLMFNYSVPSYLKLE
UniProt Q8WYQ3: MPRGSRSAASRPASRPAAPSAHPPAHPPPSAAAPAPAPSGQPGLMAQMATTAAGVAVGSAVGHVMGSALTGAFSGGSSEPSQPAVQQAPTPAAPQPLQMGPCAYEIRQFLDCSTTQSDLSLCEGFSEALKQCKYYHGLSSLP
UniProt Q8N3C7: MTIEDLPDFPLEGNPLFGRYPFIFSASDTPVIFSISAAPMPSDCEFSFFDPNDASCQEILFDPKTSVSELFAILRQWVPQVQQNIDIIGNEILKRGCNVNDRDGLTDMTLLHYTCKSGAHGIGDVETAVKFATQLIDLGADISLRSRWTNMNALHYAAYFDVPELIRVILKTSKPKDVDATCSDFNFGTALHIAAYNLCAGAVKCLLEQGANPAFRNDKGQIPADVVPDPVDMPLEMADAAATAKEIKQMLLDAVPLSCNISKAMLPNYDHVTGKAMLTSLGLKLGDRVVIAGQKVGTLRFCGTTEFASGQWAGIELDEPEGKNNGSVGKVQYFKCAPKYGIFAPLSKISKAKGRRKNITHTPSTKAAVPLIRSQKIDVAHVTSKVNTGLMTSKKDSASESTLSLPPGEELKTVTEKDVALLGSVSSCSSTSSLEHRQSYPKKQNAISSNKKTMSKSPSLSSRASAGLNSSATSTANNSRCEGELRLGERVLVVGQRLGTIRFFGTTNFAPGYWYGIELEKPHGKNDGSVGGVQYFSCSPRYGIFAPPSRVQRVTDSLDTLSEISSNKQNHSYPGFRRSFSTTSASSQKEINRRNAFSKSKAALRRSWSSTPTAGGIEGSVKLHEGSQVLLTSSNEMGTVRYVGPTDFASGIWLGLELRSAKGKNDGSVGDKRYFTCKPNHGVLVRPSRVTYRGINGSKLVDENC
UniProt Q9BSY4: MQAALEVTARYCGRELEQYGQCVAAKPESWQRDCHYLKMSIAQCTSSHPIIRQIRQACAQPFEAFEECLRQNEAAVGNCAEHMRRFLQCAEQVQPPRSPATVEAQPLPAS
UniProt Q86WJ1: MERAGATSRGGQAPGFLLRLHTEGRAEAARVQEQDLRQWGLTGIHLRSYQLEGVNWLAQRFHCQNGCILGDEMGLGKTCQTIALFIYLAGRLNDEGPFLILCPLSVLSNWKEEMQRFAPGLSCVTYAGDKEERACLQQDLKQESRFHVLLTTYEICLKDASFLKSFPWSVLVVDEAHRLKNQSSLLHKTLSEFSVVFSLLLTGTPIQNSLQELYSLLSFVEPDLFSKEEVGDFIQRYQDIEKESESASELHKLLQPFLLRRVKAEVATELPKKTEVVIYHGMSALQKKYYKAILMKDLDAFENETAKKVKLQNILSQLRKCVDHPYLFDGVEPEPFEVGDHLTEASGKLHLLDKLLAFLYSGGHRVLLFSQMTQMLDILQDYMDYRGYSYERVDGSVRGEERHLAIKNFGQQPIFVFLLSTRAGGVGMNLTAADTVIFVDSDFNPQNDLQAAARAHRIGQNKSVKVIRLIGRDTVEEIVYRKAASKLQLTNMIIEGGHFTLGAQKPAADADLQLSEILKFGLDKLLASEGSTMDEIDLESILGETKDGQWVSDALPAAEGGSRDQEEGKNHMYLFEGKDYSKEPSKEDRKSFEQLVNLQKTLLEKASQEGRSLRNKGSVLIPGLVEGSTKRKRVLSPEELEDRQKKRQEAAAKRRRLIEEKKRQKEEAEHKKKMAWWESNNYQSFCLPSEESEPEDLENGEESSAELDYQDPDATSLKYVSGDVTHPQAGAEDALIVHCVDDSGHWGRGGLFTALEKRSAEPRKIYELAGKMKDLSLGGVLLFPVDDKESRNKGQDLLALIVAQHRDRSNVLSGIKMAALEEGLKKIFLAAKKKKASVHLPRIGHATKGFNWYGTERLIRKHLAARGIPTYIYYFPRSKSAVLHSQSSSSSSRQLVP
UniProt Q9UHD1: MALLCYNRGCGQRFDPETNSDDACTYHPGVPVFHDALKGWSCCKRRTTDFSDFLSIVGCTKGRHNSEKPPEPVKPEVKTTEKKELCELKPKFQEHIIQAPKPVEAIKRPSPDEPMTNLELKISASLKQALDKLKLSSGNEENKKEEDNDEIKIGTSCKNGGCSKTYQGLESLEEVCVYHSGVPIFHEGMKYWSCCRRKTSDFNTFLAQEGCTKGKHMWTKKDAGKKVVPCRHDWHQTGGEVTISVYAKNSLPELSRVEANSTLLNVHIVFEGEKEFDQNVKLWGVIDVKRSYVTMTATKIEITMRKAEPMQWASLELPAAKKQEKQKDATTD
UniProt O14578, whole entry, looked up: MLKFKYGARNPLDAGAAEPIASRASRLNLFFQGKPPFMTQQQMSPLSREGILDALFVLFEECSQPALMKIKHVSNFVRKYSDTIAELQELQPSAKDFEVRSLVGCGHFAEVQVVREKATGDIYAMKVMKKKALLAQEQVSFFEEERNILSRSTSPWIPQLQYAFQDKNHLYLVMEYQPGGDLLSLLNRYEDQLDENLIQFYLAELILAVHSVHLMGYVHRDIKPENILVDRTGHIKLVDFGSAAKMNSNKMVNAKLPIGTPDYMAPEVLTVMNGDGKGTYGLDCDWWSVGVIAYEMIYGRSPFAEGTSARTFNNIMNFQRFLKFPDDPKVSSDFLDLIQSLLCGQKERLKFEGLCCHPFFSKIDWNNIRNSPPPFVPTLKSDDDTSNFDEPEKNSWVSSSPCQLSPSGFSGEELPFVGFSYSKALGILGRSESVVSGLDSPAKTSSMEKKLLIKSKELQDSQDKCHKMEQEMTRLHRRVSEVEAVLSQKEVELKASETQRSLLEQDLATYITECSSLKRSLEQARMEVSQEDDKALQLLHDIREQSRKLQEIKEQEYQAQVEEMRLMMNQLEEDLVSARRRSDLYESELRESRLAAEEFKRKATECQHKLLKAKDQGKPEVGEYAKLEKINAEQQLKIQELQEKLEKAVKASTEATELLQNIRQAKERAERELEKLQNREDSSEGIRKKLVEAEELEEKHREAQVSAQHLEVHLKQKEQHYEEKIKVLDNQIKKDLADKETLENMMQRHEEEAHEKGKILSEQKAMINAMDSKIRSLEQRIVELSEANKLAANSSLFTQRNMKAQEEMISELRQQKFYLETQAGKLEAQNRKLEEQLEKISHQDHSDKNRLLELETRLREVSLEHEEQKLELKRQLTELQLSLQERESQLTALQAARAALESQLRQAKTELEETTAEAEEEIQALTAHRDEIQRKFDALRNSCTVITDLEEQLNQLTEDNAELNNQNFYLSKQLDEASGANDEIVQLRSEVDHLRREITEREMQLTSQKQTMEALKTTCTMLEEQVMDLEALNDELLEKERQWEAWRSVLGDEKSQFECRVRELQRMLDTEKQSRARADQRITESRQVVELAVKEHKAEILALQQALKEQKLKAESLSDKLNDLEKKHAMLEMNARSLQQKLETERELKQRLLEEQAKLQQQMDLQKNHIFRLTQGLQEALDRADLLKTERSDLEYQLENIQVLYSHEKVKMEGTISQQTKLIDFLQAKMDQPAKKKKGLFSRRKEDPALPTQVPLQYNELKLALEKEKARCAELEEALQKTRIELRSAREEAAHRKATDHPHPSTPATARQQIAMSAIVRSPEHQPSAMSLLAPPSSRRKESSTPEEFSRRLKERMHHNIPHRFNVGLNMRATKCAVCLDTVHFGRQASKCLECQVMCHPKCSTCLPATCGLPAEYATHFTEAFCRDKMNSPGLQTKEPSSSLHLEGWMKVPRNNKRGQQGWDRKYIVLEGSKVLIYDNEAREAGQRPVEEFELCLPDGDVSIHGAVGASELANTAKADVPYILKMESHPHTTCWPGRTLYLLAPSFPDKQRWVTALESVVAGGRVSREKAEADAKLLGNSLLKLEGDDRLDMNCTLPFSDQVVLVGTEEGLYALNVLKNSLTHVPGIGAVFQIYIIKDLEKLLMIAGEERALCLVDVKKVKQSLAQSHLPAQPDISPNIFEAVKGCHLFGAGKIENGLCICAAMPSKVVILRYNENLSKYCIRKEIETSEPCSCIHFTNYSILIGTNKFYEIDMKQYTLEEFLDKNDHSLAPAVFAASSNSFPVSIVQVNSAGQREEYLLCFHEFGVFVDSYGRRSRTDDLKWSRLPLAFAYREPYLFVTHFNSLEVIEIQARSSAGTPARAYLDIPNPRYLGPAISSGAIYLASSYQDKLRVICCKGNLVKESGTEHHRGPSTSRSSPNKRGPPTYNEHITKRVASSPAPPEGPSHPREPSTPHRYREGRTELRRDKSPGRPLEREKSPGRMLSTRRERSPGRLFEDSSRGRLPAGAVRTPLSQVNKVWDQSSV
UniProt P24386: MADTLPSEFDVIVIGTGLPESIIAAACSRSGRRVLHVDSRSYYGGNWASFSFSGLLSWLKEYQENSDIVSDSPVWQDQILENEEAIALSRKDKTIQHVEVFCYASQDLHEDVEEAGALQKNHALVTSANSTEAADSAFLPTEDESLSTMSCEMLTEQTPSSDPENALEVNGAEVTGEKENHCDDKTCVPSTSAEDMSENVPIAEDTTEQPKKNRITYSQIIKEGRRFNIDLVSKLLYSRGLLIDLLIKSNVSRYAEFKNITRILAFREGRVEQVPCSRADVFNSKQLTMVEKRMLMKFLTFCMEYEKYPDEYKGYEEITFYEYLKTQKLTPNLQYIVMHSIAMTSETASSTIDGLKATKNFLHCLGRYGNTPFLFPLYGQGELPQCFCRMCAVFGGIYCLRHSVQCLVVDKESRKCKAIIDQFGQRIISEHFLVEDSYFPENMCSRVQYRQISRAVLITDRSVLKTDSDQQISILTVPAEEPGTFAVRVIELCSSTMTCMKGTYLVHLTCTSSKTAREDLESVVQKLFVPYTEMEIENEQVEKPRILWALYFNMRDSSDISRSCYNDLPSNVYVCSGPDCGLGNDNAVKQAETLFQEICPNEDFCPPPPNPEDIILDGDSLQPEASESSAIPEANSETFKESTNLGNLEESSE

Tests used:
Test in all cases: log2 fold change, soluble protein after heating vs DMSO (PISA); higher = thermal stabilisation; K562 lysate, 10 uM; active = over 0.2 and 3.5 SD of the protein, either way, in both replicates (recomputed)
nilotinib = compound: Cc1cn(-c2cc(NC(=O)c3ccc(C)c(Nc4nccc(-c5cccnc5)n4)c3)cc(C(F)(F)F)c2)cn1 [nilotinib]
Procedure, shortened: (§1)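 Log-two fold change in thermal stability relative to solvent controls is reported from duplicates. For each sample, crude K562 extract from dounce-homogenised pellets in PBS pH 7.4 with 1 mM MgCl2, at 1 mg/mL protein, was treated with 10 μM compound for 30 min. Aliquots heated for 3 min across 48°C-58°C were pooled, brought to 0.5% NP-40 at 4°C and cleared at 21,000xg for 90 min. The supernatant was quantified by TMTpro 16plex LC-MS/MS with channel sums equalised.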

[1] = compound: Cc1nc(Nc2n[nH]c3c2CN(C(=O)N[C@H](CN(C)C)c2ccccc2)C3(C)C)c2sccc2n1
Procedure, shortened: as §1

dasatinib = compound: Cc1nc(Nc2ncc(C(=O)Nc3c(C)cccc3Cl)s2)cc(N2CCN(CCO)CC2)n1 [dasatinib]
Procedure, shortened: as §1

[2] = compound: Cc1ncc(-c2ccnc(Nc3ccc(S(C)(=O)=O)cc3)n2)n1C(C)C
Procedure, shortened: as §1

[3] = compound: Cn1cc(-c2ccc3c(c2)CCN3C(=O)Cc2cccc(C(F)(F)F)c2)c2c(N)ncnc21
Procedure, shortened: as §1

quisinostat = compound: Cn1cc(CNCC2CCN(c3ncc(C(=O)NO)cn3)CC2)c2ccccc21 [quisinostat]
Procedure, shortened: as §1

tipifarnib = compound: Cn1cncc1[C@@](N)(c1ccc(Cl)cc1)c1ccc2c(c1)c(-c1cccc(Cl)c1)cc(=O)n2C [tipifarnib]
Procedure, shortened: as §1

[4] = compound: NC(=O)Nc1cc(-c2cccc(F)c2)sc1C(=O)N[C@H]1CCCNC1
Procedure, shortened: as §1

[5] = compound: NC(=O)c1cnc(N[C@@H]2CCCC[C@@H]2N)nc1Nc1cccc(-n2nccn2)c1
Procedure, shortened: as §1

[6] = compound: NC1(c2ccc(-c3nc4ccn5c(=O)[nH]nc5c4cc3-c3ccccc3)cc2)CCC1
Procedure, shortened: as §1

Measured: log2 fold change

CIAO1 (UniProt O76071)
inactive: nilotinib 0.024 | [1] -0.009 | dasatinib -0.027 | [2] 0.051 | [3] -0.038 | quisinostat 0.003 | tipifarnib -0.023 | [4] -0.053 | [5] 0.006 | [6] -0.027

CHST11 (UniProt Q9NPF2)
inactive: nilotinib 0.036 | [1] -0.091 | dasatinib -0.025 | [2] 0.022 | [3] -0.082 | quisinostat -0.059 | tipifarnib 0.018 | [4] 0.032 | [6] 0.03

CHCHD10 (UniProt Q8WYQ3)
inactive: nilotinib -0.041 | [1] 0.049 | dasatinib 0.016 | [2] -0.028 | [3] -0.03 | tipifarnib -0.088 | [5] -0.037 | [6] -0.019

CLIP4 (UniProt Q8N3C7)
inactive: nilotinib 0.049 | [1] 0.087 | [2] -0.086 | quisinostat -0.017 | tipifarnib -0.053 | [4] -0.001 | [5] 0.005 | [6] 0.01

CHCHD5 (UniProt Q9BSY4)
inactive: nilotinib 0.027 | [1] -0.208 | dasatinib 0.065 | [2] -0.128 | [3] -0.082 | quisinostat 0.344 | tipifarnib 0.028 | [4] 0.097 | [6] 0.1

CHD1L (UniProt Q86WJ1)
inactive: nilotinib -0.01 | [1] -0.012 | dasatinib -0.024 | [2] 0 | [3] 0.024 | quisinostat -0.114 | tipifarnib 0.032 | [4] 0.111 | [5] 0.028 | [6] -0.039

CHORDC1 (UniProt Q9UHD1)
inactive: nilotinib 0.024 | [1] -0.003 | dasatinib 0.016 | [2] 0.034 | [3] 0.008 | quisinostat 0.018 | tipifarnib 0.021 | [4] -0.015 | [5] 0 | [6] -0.005

CIT isoform 4 (UniProt O14578)
inactive: nilotinib -0.015 | [1] -0.003 | dasatinib -0.074 | [2] -0.035 | [3] 0.01 | quisinostat -0.007 | tipifarnib -0.003 | [4] 0.047 | [5] 0.015 | [6] 0

CHM (UniProt P24386)
inactive: nilotinib -0.071 | [1] -0.111 | dasatinib -0.015 | [2] 0.154 | [3] -0.03 | quisinostat -0.018 | tipifarnib -0.095 | [4] -0.094 | [5] 0.024 | [6] -0.028
